Test results published in patent publication US20130183315A1.
No constants are given. Whether binding was seen depends on the method and setting. Binding can be weak; no strength is given.

What was measured:
[1] = molecular target: cynomologus monkey OX40 expressed on the surface of activated lymphocytes (cynomolgus monkey); assay: flow cytometry on PHA/IL-2 activated cynomolgus PBMCs, biotinylated antibody
[2] = molecular target: cynomologus monkey OX40 expressed on the surface of activated lymphocytes (cynomolgus monkey); assay: flow cytometry on PHA/IL-2 activated cynomolgus PBMC, biotinylated antibody, labelled streptavidin detection

binding [1]: binds | binding [2]: binds
B1: chimeric 1D4 antibody (antibody, human IgG1, kappa, V domains shown)
VH: QVTLKESGPGILQPSQTLSLTCSFSGFSLSTSGMGVGWIRQPSGKGLEWLAHIWWDDDKYYNTALKSGLTISKDTSKNQVFLKIASVDTTDTATYYCARIDWDGFAYWGQGTLVTVSS
VL: QIVLTQSPAILSASPGEKVTMTCRASSSVSYMHWYQQKPGSSPKPWIYATSNLASGVPARFSGSGSGTSYSLTINRVEAEDAATYYCQQWSSNPWTFGGGTKLEIKR
